The subject of the assay is NALM-6. In words: cells. Particulars: Homo sapiens, NALM-6, 120 h.

In general, EC50 refers to the concentration giving half of the maximal effect. Low readings indicate an effect from little substance, high ones a need for much substance. For the compound `CCNC(=O)C[C@@H]1N=C(c2ccc(Cl)cc2)c2cc(OC)ccc2-n2c(C)nnc21` [MOLIBRESIB], it took 390 nM to reach a half-maximal effect (EC50).
